Data source: PubChem BioAssay AID602196 (INSERM, 2012)

- Assay: 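Modifiers of cisplatin sensitivity in A549 cells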
- Cell system: human A549 lung cancer cells
- Reagent: siRNA pair against human genes
- Timing: 48 h transfection before cisplatin; time from cisplatin to read-out not stated
- Conditions: cisplatin at a dose killing half of control-siRNA cells; exact dose and duration not given
- Measurement: 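Shift in cisplatin death relative to control siRNA, from -50 (all cells die) to +50 (no cells die); siRNAs harmful on their own scored 0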
- Direction: two-siRNA summed score (-2 to +2): higher = both siRNAs protect from cisplatin killing; -2 means both sensitise; mean protection from cisplatin (shift in death) and protection from cisplatin (shift in death), siRNA C and protection from cisplatin (shift in death), siRNA D: higher = protection from cisplatin killing
- Hit rule: 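Each siRNA scores 0 if harmful alone by LDH or WST-1, otherwise +1 if it reduces and -1 if it increases cisplatin killing; a gene is active when both siRNAs agree (sum +2 or -2)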
- Calls: active = both siRNAs shift cisplatin killing the same way; inactive = no consistent shift, or siRNA harmful alone
Here is an unselected part of about 23,000 reagents. Over the whole deposit, 455 (2%) got an active call. 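Active includes both protection and sensitisation; some change values fall well beyond the stated -50 to +50 range.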 Unmarked entries are inactive. The numbers tell different reagents against one gene apart. Reagent sequences are not shown. Not stated in the record: the amount of reagent.

| gene | reagent no. | two-siRNA summed score (-2 to +2) | mean protection from cisplatin (shift in death) (%) | protection from cisplatin (shift in death), siRNA C (%) | protection from cisplatin (shift in death), siRNA D (%) |
| --- | --- | --- | --- | --- | --- |
| SERPINA4 | 1 | 0 | 9.9 | 10.2 | 9.5 |
| PRODH | 1 | 0 | -1.1 | -5.7 | 3.5 |
| CCDC150 | 1 | 0 | 8.1 | 9.9 | 6.2 |
| CCDC150 | 2 | 1 | 24.2 | 19.6 | 28.8 |
| PAK3 | 1 | 0 | -4.1 | -6.8 | -1.4 |
| NCOA1 | 1 | 0 | -17.2 | -4.5 | -29.9 |
| RNASE3 | 1 | 0 | 5 | 5.6 | 4.5 |
| FERRY3 | 1 | 0 | 11 | 11.3 | 10.6 |
| WTIP | 1 | 0 | 7.6 | 5 | 10.2 |
| MAMDC4 | 1 | 0 | -6.1 | 10.5 | -22.7 |
| RBM45 | 1 | 0 | -4.6 | -4.5 | -4.6 |
| LOC126435 | 1 | 0 | 16.3 | 6.9 | 25.8 |
| SLU7 | 1 | 0 | -0.4 | -5.7 | 5 |
| LOC389183 | 1 | 0 | 10 | 7.9 | 12 |
| PSMG1 | 1 | -1 | -2 | 14.5 | -18.4 |

Records above whose gene name starts with L or l:
| gene | reagent no. | two-siRNA summed score (-2 to +2) | mean protection from cisplatin (shift in death) (%) | protection from cisplatin (shift in death), siRNA C (%) | protection from cisplatin (shift in death), siRNA D (%) |
| --- | --- | --- | --- | --- | --- |
| LOC126435 | 1 | 0 | 16.3 | 6.9 | 25.8 |
| LOC389183 | 1 | 0 | 10 | 7.9 | 12 |

Further results follow:
| gene | reagent no. | two-siRNA summed score (-2 to +2) | mean protection from cisplatin (shift in death) (%) | protection from cisplatin (shift in death), siRNA C (%) | protection from cisplatin (shift in death), siRNA D (%) |
| --- | --- | --- | --- | --- | --- |
| CDH22 | 1 | -1 | -8.9 | 6 | -23.7 |
| SEMA4C | 1 | 0 | -0.2 | -1.5 | 1 |
| ANKRD60 | 1 | -1 | -3.9 | -14.3 | 6.5 |
| LIPT1 | 1 | 1 | 18.8 | 27.3 | 10.2 |
| DENND2C | 1 | 0 | -2.3 | -6.7 | 2.1 |
| LOC389257 | 1 | 0 | 2.9 | -9.8 | 15.7 |
| MESP1 | 1 | 0 | 12.4 | 10.8 | 14 |
| BMPR1A | 1 | 0 | -0.5 | -1.3 | 0.3 |
